Test results: patent publication US20170247475A1
No constants are given. Whether binding was seen depends on the method and setting. Some results given as binding are weak or reduced against the parent protein; the word gives no strength.

Legend:
[1] = target: T1, hAng2; test: competition ELISA, blocking of hAng2 binding to hTie2
T1 sequence: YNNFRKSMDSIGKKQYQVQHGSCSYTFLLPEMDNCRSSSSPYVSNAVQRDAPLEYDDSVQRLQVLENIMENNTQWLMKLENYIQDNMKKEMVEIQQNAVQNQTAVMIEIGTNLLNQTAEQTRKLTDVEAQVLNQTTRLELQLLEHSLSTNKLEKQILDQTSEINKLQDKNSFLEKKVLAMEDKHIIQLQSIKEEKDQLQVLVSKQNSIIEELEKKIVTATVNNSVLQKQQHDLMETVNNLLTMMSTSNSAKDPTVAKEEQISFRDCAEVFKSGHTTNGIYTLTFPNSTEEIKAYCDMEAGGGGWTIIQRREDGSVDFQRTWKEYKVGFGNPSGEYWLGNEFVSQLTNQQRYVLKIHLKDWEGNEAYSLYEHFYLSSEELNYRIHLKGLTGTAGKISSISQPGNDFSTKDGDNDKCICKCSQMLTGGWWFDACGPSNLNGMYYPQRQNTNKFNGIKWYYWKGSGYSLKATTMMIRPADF

[2] = target: T2, mAng2; test: competition ELISA, blocking of mAng2 binding to mTie2
T2 sequence: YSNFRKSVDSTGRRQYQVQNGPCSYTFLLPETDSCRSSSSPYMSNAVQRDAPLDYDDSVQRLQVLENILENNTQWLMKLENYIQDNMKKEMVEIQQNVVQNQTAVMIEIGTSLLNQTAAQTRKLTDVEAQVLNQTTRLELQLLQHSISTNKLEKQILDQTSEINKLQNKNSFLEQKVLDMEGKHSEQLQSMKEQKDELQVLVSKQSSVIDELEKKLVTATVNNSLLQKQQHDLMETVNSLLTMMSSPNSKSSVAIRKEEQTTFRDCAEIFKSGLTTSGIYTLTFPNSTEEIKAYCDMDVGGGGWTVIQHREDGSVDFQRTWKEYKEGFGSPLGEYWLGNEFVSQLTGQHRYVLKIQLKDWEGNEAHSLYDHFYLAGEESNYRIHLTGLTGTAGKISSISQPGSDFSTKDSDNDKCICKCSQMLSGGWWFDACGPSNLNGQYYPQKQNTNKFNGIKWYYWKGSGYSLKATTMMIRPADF

binding [1]: binds | binding [2]: binds
B1: ANGBII00003 (VHH)
bivalent VHH: EVQLVESGGGLVQVGDSLRLSCAASGRTFSTYLMVGWFRQAPGKEREFAAGIWSSGDTAYADSVRGRFTISRDNAKNTVYLQMNSLKTEDTAVYYCAGSYDGNYYIPGFYKDWGQGTLVTVSSGGGGSGGGSEVQLVESGGGLVQVGDSLRLSCAASGRTFSTYLMVGWFRQAPGKEREFAAGIWSSGDTAYADSVRGRFTISRDNAKNTVYLQMNSLKTEDTAVYYCAGSYDGNYYIPGFYKDWGQGTLVTVSS
